Results as given in the supplement of paper PMC4604168 (melanoma cell lines).
This is one part of the list. Single values are uncertain, as repeats are few or missing.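 Imaging used 1,536-well plates; nuclei positive for cleaved PARP by antibody were divided by total DNA-stained nuclei to yield the apoptosis fraction. Doses for screening kept most cells viable, and cell lines differ markedly in resting and induced cleaved-PARP levels.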

Each compound was assayed on CBRC008 (line from a melanoma biopsy) (assay: cleaved PARP positive nuclei fraction relative to DMSO control; melanoma cells; higher = more apoptosis). Conditions: library dose: low library concentration; 72 h.

Structure (SMILES) | cleaved PARP positive nuclei fraction [%]
O=C(/C=C/c1cccnc1)NCCCCC1CCN(C(=O)c2ccccc2)CC1 + CN(C)S(=O)(=O)c1ccc2c(c1)/C(=C/c1cc3c([nH]1)CCCC3)C(=O)N2 [SU6656] (first compound 0.01 µM, partner dose 0.4 µM) | 3100
Cc1ccc(Nc2nccc(N(C)c3ccc4c(C)n(C)nc4c3)n2)cc1S(N)(=O)=O [Pazopanib] + NC(=O)Nc1cc(-c2cccc(F)c2)sc1C(=O)N[C@H]1CCCNC1 [AZD7762] (first compound 0.4 µM, partner dose 0.02 µM) | 73.5
Cc1cn(-c2cc(NC(=O)c3ccc(C)c(Nc4nccc(-c5cccnc5)n4)c3)cc(C(F)(F)F)c2)cn1 [nilotinib] + NC(=O)Nc1cc(-c2cccc(F)c2)sc1C(=O)N[C@H]1CCCNC1 [AZD7762] (first compound 0.2 µM, partner dose 0.02 µM) | 87.4
CCCCCCCCCCCCCCCCCCOP(=O)([O-])OC1CC[N+](C)(C)CC1 [Perifosine] + C[C@@H]1CCN(C(=O)CC#N)C[C@@H]1N(C)c1ncnc2[nH]ccc12 [CP690550] (first compound 0.4 µM, partner dose 1 µM) | 342
N#CC[C@H](C1CCCC1)n1cc(-c2ncnc3[nH]ccc23)cn1 [ruxolitinib] + C[C@@H]1CCN(C(=O)CC#N)C[C@@H]1N(C)c1ncnc2[nH]ccc12 [CP690550] (first compound 1 µM, partner dose 1 µM) | 111
COc1cc([C@@H]2c3cc4c(cc3[C@@H](O[C@@H]3O[C@@H]5CO[C@@H](C)O[C@H]5[C@H](O)[C@H]3O)[C@H]3COC(=O)[C@H]23)OCO4)cc(OC)c1O [etoposide] + Cn1cncc1[C@@](N)(c1ccc(Cl)cc1)c1ccc2c(c1)c(-c1cccc(Cl)c1)cc(=O)n2C [tipifarnib] (first compound 0.02 µM, partner dose 0.01 µM) | 61.1
N#CC[C@H](C1CCCC1)n1cc(-c2ncnc3[nH]ccc23)cn1 [ruxolitinib] + Cc1ccc(NC(=O)c2cccc(N(C)C)c2)cc1NC(=O)c1ccc(O)cc1 [ZM336372] (first compound 1 µM, partner dose 2 µM) | 168
N#CC[C@H](C1CCCC1)n1cc(-c2ncnc3[nH]ccc23)cn1 [ruxolitinib] + COc1cc2c(Oc3ccc4[nH]c(C)cc4c3F)ncnc2cc1OCCCN1CCCC1 [cediranib] (first compound 1 µM, partner dose 0.4 µM) | 103
O=c1[nH]nc(Sc2ncc([N+](=O)[O-])s2)n1-c1ccc2c(c1)OCCO2 + O=C(O)c1ccc(-c2c[nH]c3ncc(-c4ccccc4)cc23)cc1C1CCCC1 [GSK650394] (first compound 0.2 µM, partner dose 0.16 µM) | 104
Cc1cc(Nc2cc(N3CCN(C)CC3)nc(Sc3ccc(NC(=O)C4CC4)cc3)n2)n[nH]1 [Tozasertib] + COc1cc2c(Oc3ccc4[nH]c(C)cc4c3F)ncnc2cc1OCCCN1CCCC1 [cediranib] (first compound 0.006 µM, partner dose 0.4 µM) | 253
O=c1[nH]nc(Sc2ncc([N+](=O)[O-])s2)n1-c1ccc2c(c1)OCCO2 + NCC(=O)Nc1ccc(-n2nc(C(F)(F)F)cc2-c2ccc3c(ccc4ccccc43)c2)cc1 [OSU03012] (first compound 0.2 µM, partner dose 1 µM) | 50.1
N#CC[C@H](C1CCCC1)n1cc(-c2ncnc3[nH]ccc23)cn1 [ruxolitinib] + CN(C)S(=O)(=O)c1ccc2c(c1)/C(=C/c1cc3c([nH]1)CCCC3)C(=O)N2 [SU6656] (first compound 1 µM, partner dose 0.4 µM) | 192
CC[C@]1(O)C[C@H]2CN(CCc3c([nH]c4ccccc34)[C@@](C(=O)OC)(c3cc4c(cc3OC)N(C=O)[C@H]3[C@@](O)(C(=O)OC)[C@H](OC(C)=O)[C@]5(CC)C=CCN6CC[C@]43[C@@H]65)C2)C1 [vincristine] + O=C(Nc1cccc(Cl)c1)Nc1ncc(CCNc2ncnc3ccsc23)s1 [SNS314] (first compound 0.0001 µM, partner dose 0.0008 µM) | 86

These compounds were tested on CBRC013 (line from a melanoma biopsy) in the same assay as above. Conditions: library dose: low library concentration; 72 h.

Structure (SMILES) | cleaved PARP positive nuclei fraction [%]
O=C(/C=C/c1cccnc1)NCCCCC1CCN(C(=O)c2ccccc2)CC1 + CC1(C)NC(=O)N(c2ccc([N+](=O)[O-])c(C(F)(F)F)c2)C1=O [nilutamide] (first compound 0.01 µM, partner dose 1 µM) | 64.4
Cc1ccc(Nc2nccc(N(C)c3ccc4c(C)n(C)nc4c3)n2)cc1S(N)(=O)=O [Pazopanib] + C[C@@H]1CCN(C(=O)CC#N)C[C@@H]1N(C)c1ncnc2[nH]ccc12 [CP690550] (first compound 0.4 µM, partner dose 1 µM) | 91.3
O=C(Nc1cc(C(F)(F)F)cc(C(F)(F)F)c1)c1cc(Cl)ccc1O + Cc1cc(N2CCOCC2)cc2[nH]c(-c3c(NC[C@@H](O)c4cccc(Cl)c4)cc[nH]c3=O)nc12 [BMS536924] (first compound 0.016 µM, partner dose 0.2 µM) | 187
Cc1cn(-c2cc(NC(=O)c3ccc(C)c(Nc4nccc(-c5cccnc5)n4)c3)cc(C(F)(F)F)c2)cn1 [nilotinib] + CO[C@@H]1[C@H](N(C)C(=O)c2ccccc2)C[C@H]2O[C@]1(C)n1c3ccccc3c3c4c(c5c6ccccc6n2c5c31)C(=O)NC4 [Midostaurin] (first compound 0.2 µM, partner dose 0.08 µM) | 148
O=C(Nc1cc(C(F)(F)F)cc(C(F)(F)F)c1)c1cc(Cl)ccc1O + NC(=O)Nc1cc(-c2cccc(F)c2)sc1C(=O)N[C@H]1CCCNC1 [AZD7762] (first compound 0.016 µM, partner dose 0.02 µM) | 118
Cc1ccc(Nc2nccc(N(C)c3ccc4c(C)n(C)nc4c3)n2)cc1S(N)(=O)=O [Pazopanib] + COc1cc2c(Oc3ccc4[nH]c(C)cc4c3F)ncnc2cc1OCCCN1CCCC1 [cediranib] (first compound 0.4 µM, partner dose 0.4 µM) | 93.3
Cc1cn(-c2cc(NC(=O)c3ccc(C)c(Nc4nccc(-c5cccnc5)n4)c3)cc(C(F)(F)F)c2)cn1 [nilotinib] + Cc1cc(N2CCOCC2)cc2[nH]c(-c3c(NC[C@@H](O)c4cccc(Cl)c4)cc[nH]c3=O)nc12 [BMS536924] (first compound 0.2 µM, partner dose 0.2 µM) | 127
O=c1[nH]nc(Sc2ncc([N+](=O)[O-])s2)n1-c1ccc2c(c1)OCCO2 + O=C(Nc1cccc(Cl)c1)Nc1ncc(CCNc2ncnc3ccsc23)s1 [SNS314] (first compound 0.2 µM, partner dose 0.0008 µM) | 126
Cc1ccc(Nc2nccc(N(C)c3ccc4c(C)n(C)nc4c3)n2)cc1S(N)(=O)=O [Pazopanib] + Cc1cc(N2CCOCC2)cc2[nH]c(-c3c(NC[C@@H](O)c4cccc(Cl)c4)cc[nH]c3=O)nc12 [BMS536924] (first compound 0.4 µM, partner dose 0.2 µM) | 75.9
COc1cc([C@@H]2c3cc4c(cc3[C@@H](O[C@@H]3O[C@@H]5CO[C@@H](C)O[C@H]5[C@H](O)[C@H]3O)[C@H]3COC(=O)[C@H]23)OCO4)cc(OC)c1O [etoposide] + C[C@@H]1CCN(C(=O)CC#N)C[C@@H]1N(C)c1ncnc2[nH]ccc12 [CP690550] (first compound 0.02 µM, partner dose 1 µM) | 58.3
Cc1cc(Nc2cc(N3CCN(C)CC3)nc(Sc3ccc(NC(=O)C4CC4)cc3)n2)n[nH]1 [Tozasertib] + CN(C)S(=O)(=O)c1ccc2c(c1)/C(=C/c1cc3c([nH]1)CCCC3)C(=O)N2 [SU6656] (first compound 0.006 µM, partner dose 0.4 µM) | 105
O=C(/C=C/c1cccnc1)NCCCCC1CCN(C(=O)c2ccccc2)CC1 + CN(NC(=O)CC(=O)NN(C)C(=S)c1ccccc1)C(=S)c1ccccc1 [STA4783] (first compound 0.01 µM, partner dose 0.006 µM) | 140
O=C(Nc1cc(C(F)(F)F)cc(C(F)(F)F)c1)c1cc(Cl)ccc1O + CN(NC(=O)CC(=O)NN(C)C(=S)c1ccccc1)C(=S)c1ccccc1 [STA4783] (first compound 0.016 µM, partner dose 0.006 µM) | 128
COc1cc([C@@H]2c3cc4c(cc3[C@@H](O[C@@H]3O[C@@H]5CO[C@@H](C)O[C@H]5[C@H](O)[C@H]3O)[C@H]3COC(=O)[C@H]23)OCO4)cc(OC)c1O [etoposide] + NC(=O)Nc1cc(-c2cccc(F)c2)sc1C(=O)N[C@H]1CCCNC1 [AZD7762] (first compound 0.02 µM, partner dose 0.02 µM) | 141
CCCCCCCCCCCCCCCCCCOP(=O)([O-])OC1CC[N+](C)(C)CC1 [Perifosine] + NCC(=O)Nc1ccc(-n2nc(C(F)(F)F)cc2-c2ccc3c(ccc4ccccc43)c2)cc1 [OSU03012] (first compound 0.4 µM, partner dose 1 µM) | 129
CCCCCCCCCCCCCCCCCCOP(=O)([O-])OC1CC[N+](C)(C)CC1 [Perifosine] + O=C(Nc1cccc(Cl)c1)Nc1ncc(CCNc2ncnc3ccsc23)s1 [SNS314] (first compound 0.4 µM, partner dose 0.0008 µM) | 89.6

2 entries picked at random from the list so far:
Structure (SMILES) | cleaved PARP positive nuclei fraction [%]
Cc1cn(-c2cc(NC(=O)c3ccc(C)c(Nc4nccc(-c5cccnc5)n4)c3)cc(C(F)(F)F)c2)cn1 [nilotinib] + CO[C@@H]1[C@H](N(C)C(=O)c2ccccc2)C[C@H]2O[C@]1(C)n1c3ccccc3c3c4c(c5c6ccccc6n2c5c31)C(=O)NC4 [Midostaurin] (first compound 0.2 µM, partner dose 0.08 µM) | 148
Cc1ccc(Nc2nccc(N(C)c3ccc4c(C)n(C)nc4c3)n2)cc1S(N)(=O)=O [Pazopanib] + COc1cc2c(Oc3ccc4[nH]c(C)cc4c3F)ncnc2cc1OCCCN1CCCC1 [cediranib] (first compound 0.4 µM, partner dose 0.4 µM) | 93.3
